# Laboratory results reported in the supplement of paper PMC12819154, “High-throughput peptide-centric local stability assay extends protein–ligand identification to membrane proteins, tissues and bacteria” (Nature Structural & Molecular Biology, 2025).
# The list shows a part of the results. Most values lie at the level of the controls, where differences are scatter.
# Compound: Cc1nc(Nc2ncc(C(=O)Nc3c(C)cccc3Cl)s2)cc(N2CCN(CCO)CC2)n1 [dasatinib]
# Test: log2 fold change of tryptic peptide abundance, ligand vs vehicle (limited proteolysis) (log2 ratio); higher = more trypsin-susceptible (destabilized)
# Details: ligand concentration: 5 uM; sample: K562 cleared lysate
row,Target,log2 fold change
1,"HIVEP1 (peptide sequence: ASPVSFQELNR, peptide start residue: 1157) (UniProt P15822)",-0.308
2,"UniProt P21127 (peptide sequence: DSLEEGELRDHR, peptide start residue: 46)",-0.135
3,"UniProt P24278 (peptide sequence: EAPSSNSGNR, peptide start residue: 149)",-0.333
4,"ITGB5 (peptide sequence: DDLDNIR, peptide start residue: 152) (UniProt P18084)",0.0476
5,"EEF1B2 (peptide sequence: LVPVGYGIKK, peptide start residue: 177) (UniProt P24534)",-0.0552
6,"UniProt P15036 (peptide sequence: LADPDEVAR, peptide start residue: 393)",-0.0228
7,"AMD1 (peptide sequence: DVQCSIISVTK, peptide start residue: 46) (UniProt P17707)",-0.866
8,"SMARCA1 (peptide sequence: LAKEEMLQMIR, peptide start residue: 660) (UniProt P28370)",-0.442
9,"NCL (peptide sequence: KVAVATPAKK, peptide start residue: 71) (UniProt P19338)",-0.12
10,"UniProt P24844 (peptide sequence: EAFNMIDQNR, peptide start residue: 36)",0.0553
11,"AHCY (peptide sequence: SDKLPYK, peptide start residue: 2) (UniProt P23526)",-0.127
12,"ZNF22 (peptide sequence: SFFQSSNLIQHR, peptide start residue: 91) (UniProt P17026)",0.0815
13,"RXRA (peptide sequence: GLSNPAEVEALREK, peptide start residue: 382) (UniProt P19793)",-0.535
14,"ALAS2 (peptide sequence: GHCPFMLSELQDGK, peptide start residue: 68) (UniProt P22557)",-0.19
15,"IRF2 (peptide sequence: KIFQIPWMHAAR, peptide start residue: 32) (UniProt P14316)",-0.838
16,"PSMA3 (peptide sequence: HVGMAVAGLLADAR, peptide start residue: 73) (UniProt P25788)",0.107
17,"HCLS1 (peptide sequence: SAVGFDYKGEVEKHTSQK, peptide start residue: 134) (UniProt P14317)",0.442
18,"IDE (peptide sequence: GWFVYQQR, peptide start residue: 775) (UniProt P14735)",-0.409
19,"UniProt P27448 (peptide sequence: IPFYMSTDCENLLKR, peptide start residue: 272)",0.682

row,Target,log2 fold change
1,"NME1 (peptide sequence: GLVGEIIKR, peptide start residue: 19) (UniProt P15531)",-0.35
2,"G0S2 (peptide sequence: LRDQEAAVAELQAALER, peptide start residue: 56) (UniProt P27469)",0.0604
3,"TFEB (peptide sequence: FAAHISPAQGSPKPPPAASPGVR, peptide start residue: 104) (UniProt P19484)",-0.301
4,"TFE3 (peptide sequence: DGVEASAEGPR, peptide start residue: 10) (UniProt P19532)",0.284
5,"FBL (peptide sequence: HEGVFICR, peptide start residue: 93) (UniProt P22087)",0.195
6,"DARS (peptide sequence: QTSMFPRDPKR, peptide start residue: 488) (UniProt P14868)",0.379
7,"RPL10 (peptide sequence: EHVIEALRR, peptide start residue: 146) (UniProt P27635)",-0.421
8,"LMO2 (peptide sequence: AYEMTMR, peptide start residue: 103) (UniProt P25791)",0.0758
9,"PFKL (peptide sequence: DTDFEHR, peptide start residue: 728) (UniProt P17858)",-0.142
10,"COX5A (peptide sequence: RLNDFASTVR, peptide start residue: 98) (UniProt P20674)",-0.181
11,"UniProt P21108 (peptide sequence: IFSGSSHQDLSQK, peptide start residue: 6)",0.0447
12,"PTBP1 (peptide sequence: HQNVQLPR, peptide start residue: 437) (UniProt P26599)",-0.133
13,"PRKCH (peptide sequence: CHHLIVTACTCQNNINKVDSK, peptide start residue: 214) (UniProt P24723)",0.599
14,"UniProt P18054 (peptide sequence: TDLEKLEK, peptide start residue: 629)",0.145
15,"ELK1 (peptide sequence: NKTNMNYDKLSR, peptide start residue: 51) (UniProt P19419)",-0.323
16,"AGA (peptide sequence: RGEDPTIACQK, peptide start residue: 278) (UniProt P20933)",0.611
17,"DNAJB1 (peptide sequence: KKQDPPVTHDLR, peptide start residue: 158) (UniProt P25685)",-0.145
18,"UniProt P17600 (peptide sequence: QASQAGPVPR, peptide start residue: 603)",0.0522
19,"EEF1G (peptide sequence: DPFAHLPK, peptide start residue: 278) (UniProt P26641)",-0.16
